Measurements taken from patent US20190298728A1.
No constants are given. Whether binding was seen depends on the method and setting. Some entries that bind do so weakly or less than the wild type.

The chains behind the UniProt entries cited, without tags or fusion partners.
UniProt P42338: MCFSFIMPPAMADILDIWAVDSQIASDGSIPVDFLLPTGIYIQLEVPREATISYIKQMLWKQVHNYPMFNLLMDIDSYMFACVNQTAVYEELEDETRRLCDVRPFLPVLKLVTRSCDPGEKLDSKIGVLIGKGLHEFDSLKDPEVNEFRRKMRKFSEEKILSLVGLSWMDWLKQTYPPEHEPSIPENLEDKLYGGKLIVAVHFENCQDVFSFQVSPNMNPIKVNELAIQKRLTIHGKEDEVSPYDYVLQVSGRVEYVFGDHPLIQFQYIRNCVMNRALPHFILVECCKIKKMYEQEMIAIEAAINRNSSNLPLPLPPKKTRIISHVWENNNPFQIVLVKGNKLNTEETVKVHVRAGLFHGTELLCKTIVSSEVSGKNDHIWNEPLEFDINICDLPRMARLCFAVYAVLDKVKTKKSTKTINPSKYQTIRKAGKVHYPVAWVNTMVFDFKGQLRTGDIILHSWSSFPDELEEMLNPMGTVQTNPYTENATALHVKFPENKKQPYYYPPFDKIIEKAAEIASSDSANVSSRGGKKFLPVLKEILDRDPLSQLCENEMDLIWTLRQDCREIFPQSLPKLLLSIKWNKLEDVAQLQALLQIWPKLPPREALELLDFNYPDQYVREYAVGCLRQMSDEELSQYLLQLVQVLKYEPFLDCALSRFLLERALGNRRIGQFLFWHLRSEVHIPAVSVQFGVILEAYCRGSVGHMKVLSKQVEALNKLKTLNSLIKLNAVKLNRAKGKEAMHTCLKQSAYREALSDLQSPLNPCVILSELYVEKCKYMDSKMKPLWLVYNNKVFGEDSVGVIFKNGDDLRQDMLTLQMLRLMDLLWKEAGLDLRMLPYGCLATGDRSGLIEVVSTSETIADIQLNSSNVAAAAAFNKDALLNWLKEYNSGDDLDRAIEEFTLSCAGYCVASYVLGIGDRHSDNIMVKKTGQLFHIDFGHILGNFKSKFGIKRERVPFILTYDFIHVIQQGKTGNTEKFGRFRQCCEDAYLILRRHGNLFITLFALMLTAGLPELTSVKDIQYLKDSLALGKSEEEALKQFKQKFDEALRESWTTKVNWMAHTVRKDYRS
UniProt P46109: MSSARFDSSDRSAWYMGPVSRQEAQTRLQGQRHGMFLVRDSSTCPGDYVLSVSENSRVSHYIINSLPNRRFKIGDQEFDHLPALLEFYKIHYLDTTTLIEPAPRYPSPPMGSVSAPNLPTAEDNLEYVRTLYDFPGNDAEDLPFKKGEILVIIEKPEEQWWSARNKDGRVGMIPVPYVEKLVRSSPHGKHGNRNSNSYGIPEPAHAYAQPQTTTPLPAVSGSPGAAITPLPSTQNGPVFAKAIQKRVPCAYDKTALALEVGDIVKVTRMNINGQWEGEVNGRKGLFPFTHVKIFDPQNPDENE

Molecular target: PI3Kβ (p110β catalytic isoform of PI3K, encoded by PIK3CB) (UniProt P42338)
Experiment: taptag (tandem affinity tag) purification of p110β binding proteins

binding: binds
Substance: CRKL (from UniProt P46109 1-303)
